Binding signal data for 42 sequences are collected here from article PMC7819943, “Rice protein-binding microarrays: a tool to detect cis-acting elements near promoter regions in rice”.

This is one part of the list.

In the experiment the target is T1, OsSMF1 (Oryza sativa, UniProt Q6ZLB0 1-436).
T1 sequence: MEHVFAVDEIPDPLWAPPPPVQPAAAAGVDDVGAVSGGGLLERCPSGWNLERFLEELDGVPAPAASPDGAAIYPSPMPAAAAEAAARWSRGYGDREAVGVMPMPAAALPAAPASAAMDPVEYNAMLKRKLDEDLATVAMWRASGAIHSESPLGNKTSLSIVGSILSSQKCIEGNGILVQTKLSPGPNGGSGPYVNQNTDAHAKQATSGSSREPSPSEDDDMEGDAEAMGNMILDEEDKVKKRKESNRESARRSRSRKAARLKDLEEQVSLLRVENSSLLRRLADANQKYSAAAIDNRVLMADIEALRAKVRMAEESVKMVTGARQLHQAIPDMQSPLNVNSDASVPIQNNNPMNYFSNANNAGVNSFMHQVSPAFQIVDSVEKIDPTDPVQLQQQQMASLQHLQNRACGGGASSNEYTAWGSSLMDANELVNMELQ
Description: protein-binding microarray (RPBM); PBS, 2% BSA, 51.3 ng/ul salmon testes DNA, 50 uM zinc acetate, 200 nM TF, 25 C, 1 h; high values mean tight binding. The settings on record: protein: recombinant; tags: N-terminal polyhistidine and DsRed monomer fusion (pET32a); chain copies: 2; label: CyDye5-dUTP incorporated in the synthesized complementary strand; 3' TTTTT single-stranded linker to array surface; dsDNA, one strand shown. The method in brief:
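Binding signal here means per-feature fluorescence intensity in arbitrary units. The values were read on an Axon 4000B scanner after a custom Agilent array, double-stranded by primer extension with Cy5-dUTP, was incubated with 200 nM protein at 25 °C for 1 h in PBS with 2% BSA, salmon testes DNA and 50 µM zinc acetate, then washed. The proteins were transcription factors with an N-terminal polyhistidine tag and DsRed, expressed in E. coli BL21-CodonPlus and purified on Ni–NTA.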
As for “CCAAATTGTTGTTGCCACATCCTTGATCGTATGCTTCTTACGGAGTCACCTAGTGCAG”, the binding signal is 3420 fluorescence intensity (a.u.). On to “AGCGTGTGTATCGGGTTCAGTTGGAGACGTGGCGTCGTGCCGGAGTCACCTAGTGCAG”, for which the binding signal is 6850 fluorescence intensity (a.u.). Turning to “ACTAGCAGCCCACACACTGCCACTGCATAGGTTACGAGTTCGGAGTCACCTAGTGCAG”, the binding signal was 3620 fluorescence intensity (a.u.). The result for “GGACGTTCTCGTATTATTATATCCAGACCTCTATAGTAGTCGGAGTCACCTAGTGCAG” reads 28100 fluorescence intensity (a.u.).

For “ATATCAAACACGGTGGCAGGATCAAAGTCAGCTCTCTCTTCGGAGTCACCTAGTGCAG”, the binding signal is 3660 fluorescence intensity (a.u.). The result for “ACGATAAGCCGGCGACACAAGCATCCACATCATAGAAATCCGGAGTCACCTAGTGCAG” reads 6040 fluorescence intensity (a.u.). On to “TGACAGAGATGGCGGTTCGGTGAGGTGTAGCACGCGTGTGCGGAGTCACCTAGTGCAG”, for which the binding signal is 3710 fluorescence intensity (a.u.). “CTCTTACCCATTAGGTACGTGGGTATGGGTATGTTCTTTACGGAGTCACCTAGTGCAG”: the binding signal is 3610 fluorescence intensity (a.u.).

Consider “CCATGTTAGTAGATAGCTTTGCTCTCTCTCTTCATTTAATCGGAGTCACCTAGTGCAG”, for which the binding signal is 5650 fluorescence intensity (a.u.). In the case of “TGGAACCCGCCCTCGTACATCTGGTGGATCTCGTACACGTCGGAGTCACCTAGTGCAG”, the binding signal is 4200 fluorescence intensity (a.u.). Take “CACTGATTTTAGGAGTTGAGGGACGCGTCATACAGTCATACGGAGTCACCTAGTGCAG”: the binding signal is 6770 fluorescence intensity (a.u.). On to “GCAGCGCCATGAAAGCGCATGGCATGCATGCACTGCACTGCGGAGTCACCTAGTGCAG”, for which the binding signal was 3520 fluorescence intensity (a.u.). Regarding “ACGTGCAGGGGTTCTACGTCGTCACCTACGGCCTCGGCATCGGAGTCACCTAGTGCAG”, the binding signal was 3870 fluorescence intensity (a.u.).

Consider “TCCCTCTGACATGGTTCATTGATAGGTGGACTCTCTATTCCGGAGTCACCTAGTGCAG”, for which the binding signal was 3240 fluorescence intensity (a.u.). For the sequence “GACCTCGTCTTCCTCCTCCACCTCCTCGCGACCTCGCATTCGGAGTCACCTAGTGCAG”, the binding signal is 3360 fluorescence intensity (a.u.).

Take “CTCTATATATACGTGTGTACCCTGCAGGACAAGCCAGTGTCGGAGTCACCTAGTGCAG”: the binding signal is 4480 fluorescence intensity (a.u.). Take “ATCCAATGGAGCTACCTAAGCTACCACGTATACATGTACCCGGAGTCACCTAGTGCAG”: the binding signal was 6560 fluorescence intensity (a.u.).

For the sequence “ACGGCCTCATGCCATCGCCTGACACGTACGCCCGATCTCCCGGAGTCACCTAGTGCAG”, the binding signal was 9730 fluorescence intensity (a.u.). In the case of “GTTGGCGACGTTCCACGTCCATAGGCCCATTTAGGCCCATCGGAGTCACCTAGTGCAG”, the binding signal was 4660 fluorescence intensity (a.u.). In the case of “CCGATGTGTCATAGGATCCACATGTCAGTGACAATGTCACCGGAGTCACCTAGTGCAG”, the binding signal was 3760 fluorescence intensity (a.u.).

With “AAGTAATGACCACATCACCAGATCACCTCAGAGCTGGCTGCGGAGTCACCTAGTGCAG”, the binding signal is 6330 fluorescence intensity (a.u.). The result for “GTACATCCACGCACGCAGGGCGGTCTTGCGACACCACCGACGGAGTCACCTAGTGCAG” reads 3900 fluorescence intensity (a.u.); that for “TATTTTGGACATTTGGATTGAATATTTCTTTCCACTATGCCGGAGTCACCTAGTGCAG”, 3590 fluorescence intensity (a.u.); that for “CCACTCTCCAGCGAGGCAGCGAATACGTATGCATCTGCTCCGGAGTCACCTAGTGCAG”, 5340 fluorescence intensity (a.u.). As for “GCAGCCTAATAATAAAACTAATTACATGTATGAGAGCTAACGGAGTCACCTAGTGCAG”, the binding signal was 28100 fluorescence intensity (a.u.). With “CGCAGAAGATCTCCAATTGCCAGGTCAGCCTCCCACGGCCCGGAGTCACCTAGTGCAG”, the binding signal is 16900 fluorescence intensity (a.u.). Take “GGAAGTCAGTGACGCGTCAGGCAGCAGACAACGTGGGTGTCGGAGTCACCTAGTGCAG”: the binding signal is 10800 fluorescence intensity (a.u.). Turning to “CTTTTAATTTCCCTCGTGTCATGTATAGTAGTACTCCACCCGGAGTCACCTAGTGCAG”, the binding signal is 4220 fluorescence intensity (a.u.). In the case of “TGAATAGTACTTTATGTGTATGTGTGACGTGACTATTTTCCGGAGTCACCTAGTGCAG”, the binding signal is 6750 fluorescence intensity (a.u.). With “CTCCAGCTTATTCAATCTTGTTCTGAACAAATGATCTCTCCGGAGTCACCTAGTGCAG”, the binding signal is 3340 fluorescence intensity (a.u.). Regarding “ATCCGATTCCGGTTTTATCCTACGTGGCAGCTGAGTCAGCCGGAGTCACCTAGTGCAG”, the binding signal was 30800 fluorescence intensity (a.u.).

For the sequence “GATGACAGGTGGGGCCCACATGTCAGTGGACCCCACAATTCGGAGTCACCTAGTGCAG”, the binding signal was 26100 fluorescence intensity (a.u.). With “TTTTATGTATTTGACCATAAAACGAGATTTGATGAAATTTCGGAGTCACCTAGTGCAG”, the binding signal is 27200 fluorescence intensity (a.u.). Next, “CAACCTGCCAAATATCATGTGTACATGCTGGCACGTCAATCGGAGTCACCTAGTGCAG”: 4660 fluorescence intensity (a.u.). As for “AGTTGTTGTTTCATAGTTGAGTTTTGGTCGTGTCAACATTCGGAGTCACCTAGTGCAG”, the binding signal was 3200 fluorescence intensity (a.u.). On to “AAAAGAAAAGAAATAAAGAATGAGTCGTCATCACCAGCAACGGAGTCACCTAGTGCAG”, for which the binding signal is 3810 fluorescence intensity (a.u.). Next, “GGATTTGTCCAATGATGATGATGAGTAAAATGAGTTGGCGCGGAGTCACCTAGTGCAG”: 4930 fluorescence intensity (a.u.); “ACCGACGCGGACAGCCACAGTCCAGTCACACACCACACCACGGAGTCACCTAGTGCAG”: 5320 fluorescence intensity (a.u.). Consider “TGGCAAGGGGCGGCGGCGGCTGGTGAGGGGCGCCGGCCGCCGGAGTCACCTAGTGCAG”, for which the binding signal is 16100 fluorescence intensity (a.u.). The result for “CCAGTATTGTTTGCATGATAAAATCTGTATACTCTACTATCGGAGTCACCTAGTGCAG” reads 3300 fluorescence intensity (a.u.). With “CAGCAGAGGATCAAGCTGGCCAAGCTGCATCGTCACCATTCGGAGTCACCTAGTGCAG”, the binding signal is 3960 fluorescence intensity (a.u.). As to “TACAATTCACCTAATTGGAAATATGCCATTACAATTCTGCCGGAGTCACCTAGTGCAG”, the binding signal was 6760 fluorescence intensity (a.u.).
